# Experimental data published in PubChem BioAssay AID256 (DTP/NCI, 2004).
# The list does not hold the whole screen: it gathers tests that were run many times, whatever their T/C, doses with no T/C, and many T/C values between a quarter and a half above the control. Further doses and runs are listed elsewhere. T/C is the treated group as % of the vehicle group. Some entries give survivors of the animals treated and no T/C: the source holds a T/C of zero for them, seemingly a mark for toxic or unscored doses. Some doses without a T/C left all or most animals alive at the check, yet need not have been tolerated: the source hardly ever lists a survival T/C far under the control, and the zero likely stands for such cases as well. Survivors were counted at the toxicity check, usually on the fifth day, unless a day is given; later deaths do not show. Schedule codes are those of the source, taken here to give the interval after Q, in days (D) or hours (H), and the number of doses after X. Where survival is the endpoint, the PubChem record calls one and a half times the control and up active, and a quarter to a half above the control has no call in these data; cut-offs in other NCI protocols can differ. Some entries were tested several times; the results are listed from low to high.
# Test system: CD2F1 mice, L1210 leukemia ip, survival T/C
# Experiment: NCI In Vivo Anticancer Drug Screen. Data for tumor model L1210 Leukemia (intraperitoneal) in CD2F1 (CDF1) mice
# Conditions: higher T/C = longer survival
# Summary of the method: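 Each value reflects a quotient of treated over vehicle control outcomes in mice with a transplanted tumor.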
# [1] = T/C endpoint: mean survival time, dose: 100.0 mg/kg/injection, schedule: Q04DX002 (ip), vehicle: saline with Tween-80
# [2] = T/C endpoint: mean survival time, dose: 200.0 mg/kg/injection, schedule: Q04DX002 (ip), vehicle: saline with Tween-80
# [3] = T/C endpoint: mean survival time, dose: 400.0 mg/kg/injection, schedule: Q01DX009 (ip), vehicle: saline with Tween-80
# [4] = T/C endpoint: mean survival time, dose: 400.0 mg/kg/injection, schedule: Q04DX002 (ip), vehicle: saline with Tween-80
# [5] = T/C endpoint: median survival time, dose: 800.0 mg/kg/injection, schedule: Q01DX005 (ip), vehicle: saline
compound,measurement,setting,value
C[N+](C)(CC(=O)Nc1ccc(Cl)cc1)Cc1ccc2c(c1)CCCC2,survivor count,"T/C endpoint: mean survival time, dose: 100.0 mg/kg/injection, schedule: Q01DX009 (ip), vehicle: saline with Tween-80",0 of 6
same,survivor count,[1],0 of 3
same,survivor count,"T/C endpoint: mean survival time, dose: 200.0 mg/kg/injection, schedule: Q01DX009 (ip), vehicle: saline with Tween-80",0 of 6
same,survivor count,[2],0 of 3
same,survivor count,[3],0 of 6
same,survivor count,[4],0 of 3
BrCC[n+]1ccc(-c2cc[n+](CCBr)cc2)cc1,survivor count,"T/C endpoint: mean survival time, dose: 100.0 mg/kg/injection, schedule: Q01DX001 (ip), vehicle: Klucel (hydroxypropylcellulose) (HPC)",0 of 6
same,survivor count,"T/C endpoint: mean survival time, dose: 200.0 mg/kg/injection, schedule: Q01DX001 (ip), vehicle: Klucel (hydroxypropylcellulose) (HPC)",0 of 6
same,survivor count,"T/C endpoint: mean survival time, dose: 400.0 mg/kg/injection, schedule: Q01DX001 (ip), vehicle: Klucel (hydroxypropylcellulose) (HPC)",0 of 6
O=[N+]([O-])c1ccc(Sc2ccc(Cl)cc2)cc1,survivor count,[3],6 of 6
Cc1cc(I)cs1,survivor count,"T/C endpoint: mean survival time, dose: 400.0 mg/kg/injection, schedule: Q01DX001 (ip), vehicle: saline",1 of 6
CC1=Cc2ccc(C)cc2C(=O)C1=O,survivor count,"T/C endpoint: mean survival time, dose: 6.25 mg/kg/injection, schedule: Q04DX002 (ip), vehicle: saline with Tween-80",1 of 3
same,survivor count,"T/C endpoint: mean survival time, dose: 100.0 mg/kg/injection, schedule: Q01DX001 (ip), vehicle: saline with Tween-80",0 of 6
same,survivor count,"T/C endpoint: mean survival time, dose: 200.0 mg/kg/injection, schedule: Q01DX001 (ip), vehicle: saline with Tween-80",0 of 6
same,survivor count,"T/C endpoint: mean survival time, dose: 400.0 mg/kg/injection, schedule: Q01DX001 (ip), vehicle: saline with Tween-80",0 of 6
COc1ccc(C(N)=O)cc1N=NN(C)C,T/C,"T/C endpoint: mean survival time, dose: 18.75 mg/kg/injection, schedule: Q01DX009 (ip), vehicle: Klucel (hydroxypropylcellulose) (HPC)",131 % of control
same,survivor count,"T/C endpoint: mean survival time, dose: 150.0 mg/kg/injection, schedule: Q01DX009 (ip), vehicle: Klucel (hydroxypropylcellulose) (HPC)",3 of 6
same,survivor count,"T/C endpoint: mean survival time, dose: 300.0 mg/kg/injection, schedule: Q01DX009 (ip), vehicle: Klucel (hydroxypropylcellulose) (HPC)",0 of 6
c1ccc2c[n+](CCCCCCCCCC[n+]3ccc4ccccc4c3)ccc2c1,survivor count,"T/C endpoint: mean survival time, dose: 16.0 mg/kg/injection, schedule: Q01DX001 (ip), vehicle: saline",6 of 6
C/C=C1\CC2C=CC1C2 (centres undefined) (tested in a mixture with another compound),survivor count,"T/C endpoint: mean survival time, dose: 322.0 mg/kg/injection, schedule: Q01DX009 (ip), vehicle: saline with Tween-80",6 of 6
NC(N)=N/N=C\c1ccc2ccccc2c1,survivor count,[1],0 of 3
NNC(=O)OCc1ccccc1,survivor count,[2],1 of 3
same,survivor count,[4],0 of 3
O=C(Nc1ccc(Cl)cc1)c1cccc([N+](=O)[O-])c1O,survivor count,"T/C endpoint: mean survival time, dose: 50.0 mg/kg/injection, schedule: Q01DX009 (ip), vehicle: Klucel (hydroxypropylcellulose) (HPC)",0 of 3
same,survivor count,"T/C endpoint: mean survival time, dose: 100.0 mg/kg/injection, schedule: Q01DX009 (ip), vehicle: Klucel (hydroxypropylcellulose) (HPC)",0 of 3
same,survivor count,"T/C endpoint: mean survival time, dose: 200.0 mg/kg/injection, schedule: Q01DX009 (ip), vehicle: Klucel (hydroxypropylcellulose) (HPC)",0 of 3
N[C@@H](C[C@H]1CCC(=O)[C@@H]2O[C@H]12)C(=O)O,T/C,"T/C endpoint: mean survival time, dose: 200.0 mg/kg/injection, schedule: Q04DX002 (ip), vehicle: saline",130 and 136 % of control
same,T/C,"T/C endpoint: mean survival time, dose: 400.0 mg/kg/injection, schedule: Q04DX002 (ip), vehicle: saline",130 % of control
same,T/C,"T/C endpoint: mean survival time, dose: 600.0 mg/kg/injection, schedule: Q04DX002 (ip), vehicle: saline",139 % of control
same,T/C,"T/C endpoint: median survival time, dose: 200.0 mg/kg/injection, schedule: Q01DX005 (ip), vehicle: saline",128 and 131 % of control
same,T/C,"T/C endpoint: median survival time, dose: 400.0 mg/kg/injection, schedule: Q01DX005 (ip), vehicle: saline","127, 133, 142 % of control"
same,T/C,"T/C endpoint: median survival time, dose: 480.0 mg/kg/injection, schedule: Q01DX005 (ip), vehicle: saline",130 % of control
same,T/C,"T/C endpoint: median survival time, dose: 666.67 mg/kg/injection, schedule: Q01DX005 (ip), vehicle: saline",136 % of control
same,T/C,[5],129 % of control
same,survivor count,[5],0 of 6
same,survivor count,"T/C endpoint: median survival time, dose: 1111.11 mg/kg/injection, schedule: Q01DX005 (ip), vehicle: saline",0 of 6
C[SeH]C.C[SeH]C.O.O=S(=O)(O)O.[Pt],survivor count,"T/C endpoint: mean survival time, dose: 200.0 mg/kg/injection, schedule: Q04DX003 (ip), vehicle: other",0 of 6
Brc1nc(Br)c(Br)[nH]1,survivor count,"T/C endpoint: mean survival time, dose: 200.0 mg/kg/injection, schedule: Q04DX003 (ip), vehicle: saline with Tween-80",0 of 6
same,survivor count,"T/C endpoint: mean survival time, dose: 400.0 mg/kg/injection, schedule: Q04DX003 (ip), vehicle: saline with Tween-80",0 of 6
